Data reported in the supplement of paper PMC9015667.
Counter-ions that a name gives are not always drawn. The list shows a part of the results. Repeats are few or missing, and single values can be far off.

These molecules were tested on M238R (matched melanoma line resistant to BRAF inhibitors) (assay: reduction in cell viability relative to untreated/vehicle; higher = more growth inhibition). Details: 200 nM; 72 h.

SMILES | reduction in cell viability [%]
Oc1cc2c(cc1O)[C@@H]1c3ccc(O)c(O)c3OC[C@]1(O)C2 [Hematoxylin] | < 0
C[C@H]1[C@H](C)CC[C@]2(C(=O)O)CC[C@]3(C)C(=CC[C@@H]4[C@@]5(C)CC[C@H](O)C(C)(C)[C@@H]5CC[C@]43C)[C@H]12 [Ursolic acid] | < 0
C[C@@H](O)[C@H]1C(=O)N2C(C(=O)OCOC(=O)C(C)(C)C)=C(SC3CN(C4=NCCS4)C3)[C@H](C)[C@H]12 [Tebipenem pivoxil] | < 0
O=C(Nc1nnc(-c2ccco2)o1)c1cc(-c2ccccc2)nc2ccccc12 | < 0
CCOC(=O)/C=C/[C@H](C[C@@H]1CCNC1=O)NC(=O)[C@@H](CC(=O)[C@@H](NC(=O)c1cc(C)on1)C(C)C)Cc1ccc(F)cc1 [Rupintrivir] | < 0
CC(C)CC(=O)Nc1n[nH]c2c1CN(C(=O)C1CCN(C)CC1)C2(C)C | 24.5
Cc1nc(-c2ccc(OCC(C)C)c(C#N)c2)sc1C(=O)O [Febuxostat] | < 0
O=C(NC1CC1)c1cccc(-c2ccc3c(NC(=O)C4CC4)n[nH]c3c2)c1 | < 0
COC(=O)C1=C(C)NC(C)=C(C(=O)OCCN2CCN(C(c3ccccc3)c3ccccc3)CC2)C1c1cccc([N+](=O)[O-])c1 (centres undefined) [Manidipine dihydrochloride] | < 0
O=C1CCC(N2C(=O)c3ccccc3C2=O)C(=O)N1 (centres undefined) [Thalidomide] | < 0
CC1(C)C(=O)N(CCN2CCC(C(=O)c3ccc(F)cc3)CC2)c2ccccc21 | < 0
COC1=CC(c2cc3ccccc3[nH]2)=N/C1=C\c1[nH]c(C)cc1C [Obatoclax] | 67.7
C[C@H]1c2cccc(O)c2C(=O)C2=C(O)[C@]3(O)C(=O)C(C(N)=O)=C(O)[C@@H](N(C)C)[C@@H]3[C@@H](O)[C@@H]21 [Doxycycline] | < 0
Cc1cn([C@H]2O[C@@H](CO)[C@H](O)[C@H]2F)c(=O)[nH]c1=O [Clevudine] | < 0
Cc1nc(Nc2ncc(C(=O)Nc3c(C)cccc3Cl)s2)cc(N2CCN(CCO)CC2)n1 [Dasatinib] | 48.1
CC[N+](CC)(CC)CCOc1cccc(OCC[N+](CC)(CC)CC)c1OCC[N+](CC)(CC)CC [Gallamine triethiodide] | 17.5
Fc1ccc(C(c2ccc(F)cc2)N2CCN(C/C=C/c3ccccc3)CC2)cc1 [Flunarizine] | < 0
Cc1ccc(S(=O)(=O)OCC(=O)Nc2ccc(C(=O)O)c(O)c2)cc1 | < 0
Clc1ccc(C2(c3ccc(-c4cn[nH]c4)cc3)CCNCC2)cc1 | 7.3
CC(=O)O[C@@H]1[C@@H](OC(C)=O)[C@@H](O)[C@H](Oc2c(-c3ccc(O)cc3)oc3cc(O)cc(O)c3c2=O)O[C@H]1C | < 0

SMILES | reduction in cell viability [%]
CC(C)(O)CC(=O)NCCn1ccc2ncnc(Nc3ccc(Oc4cccc(C(F)(F)F)c4)c(Cl)c3)c21 | < 0
NS(=O)(=O)c1cc2c(cc1Cl)NCNS2(=O)=O [Hydrochlorothiazide] | < 0
C[C@@H]1COC(Nc2ccc3ncnc(Nc4ccc(OCc5nccs5)c(Cl)c4)c3c2)=N1 [Varlitinib tosylate] | < 0
N#C[C@@H]1C[C@@H]2C[C@@H]2N1C(=O)[C@@H](N)C12CC3CC(CC(O)(C3)C1)C2 [Saxagliptin] | < 0
COc1ccc(-c2nc3cc(C4=NNC(=O)CC4C)ccc3[nH]2)cc1 (centres undefined) [Pimobendan hydrochloride] | < 0
COc1ccc(-c2ccc3c(N4CCOC[C@@H]4C)nc(N4CCOC[C@@H]4C)nc3n2)cc1CO | 54.1
CC[C@H](CC#N)OC(=O)N[C@@H](C)c1cccc(NC(=O)Nc2ccc(-c3cnco3)c(OC)c2)c1 | 18.6
Oc1ccc(-c2nc(-c3ccc(F)cc3)c(-c3ccncc3)[nH]2)cc1 | < 0
Fc1cc(-c2cccc3ncc(-c4cnn(C5CCNCC5)c4)nc23)cc(F)c1CN1CCOCC1 | < 0
c1ccc(-c2oc3ncnc(NC[C@@H]4CCCO4)c3c2-c2ccccc2)cc1 | < 0
CS(=O)(=O)N(Cc1ccco1)C[C@@H](O)Cn1c2ccccc2c2ccccc21 | < 0
Cn1cc(-c2ccncc2)c(-c2ccc(OCc3ccc4ccccc4n3)cc2)n1 | < 0
CC(C)CN(C[C@@H](O)[C@H](Cc1ccccc1)NC(=O)O[C@H]1CCOC1)S(=O)(=O)c1ccc(N)cc1 [Amprenavir] | < 0
CNC(=O)c1ccc2cc([C@@]3(O)CCn4cncc43)ccc2c1 [Orteronel] | < 0
CCN(CC)CCCCNc1ncc2c(n1)N(C)C(=O)N(c1c(Cl)c(OC)cc(OC)c1Cl)C2 | < 0
CCOC(=O)N1c2ccc(C(F)(F)F)cc2[C@@H](N(Cc2cc(C(F)(F)F)cc(C(F)(F)F)c2)C(=O)OC)C[C@H]1CC [Torcetrapib] | < 0
CC(C)(C)c1[nH]cnc1/C=c1\[nH]c(=O)/c(=C/c2ccccc2)[nH]c1=O [Plinabulin] | 54.5
COc1cccc2c1C(=O)c1c(O)c3c(c(O)c1C2=O)C[C@@](O)(C(=O)CO)C[C@@H]3O[C@H]1C[C@H](N)[C@H](O[C@@H]2CCCCO2)[C@H](C)O1 [Pirarubicin] | < 0
COC(c1ccccc1)(c1ccccc1)[C@H](Oc1nc(C)cc(C)n1)C(=O)O [Ambrisentan] | < 0

Reformatted in markdown: entries from further up

| SMILES | reduction in cell viability [%] |
| --- | --- |
| N#C[C@@H]1C[C@@H]2C[C@@H]2N1C(=O)[C@@H](N)C12CC3CC(CC(O)(C3)C1)C2 [Saxagliptin] | < 0 |
| COC(c1ccccc1)(c1ccccc1)[C@H](Oc1nc(C)cc(C)n1)C(=O)O [Ambrisentan] | < 0 |
